Results are given in words; binding and its absence hold for the method and conditions named. Binding seen in cells or lysates may run through a third protein. Some entries that bind do so weakly or less than the wild type. For some assays here: Where a sequence is shown, tags or fusion partners need not be part of it.

The target in experiment [1] is STAT5B, FLAG-tagged or V5-tagged (pTwist-FLAG-STAT5B, pTwist-V5-STAT5B) (human) (UniProt P51692). In words: co-IP; HEK293T co-transfected with FLAG- and V5-tagged STAT1 and STAT5B; whole cell lysates in RIPA buffer 24 h post transfection; anti-FLAG M2 magnetic beads, 4 h at 4 °C; five washes with RIPA buffer; immunoblots with anti-V5 and anti-FLAG.
In experiment [2] the target is T1, STAT1, FLAG-tagged or V5-tagged (pTwist-FLAG-STAT1, pTwist-V5-STAT1) (human), P42224.
T1 chain: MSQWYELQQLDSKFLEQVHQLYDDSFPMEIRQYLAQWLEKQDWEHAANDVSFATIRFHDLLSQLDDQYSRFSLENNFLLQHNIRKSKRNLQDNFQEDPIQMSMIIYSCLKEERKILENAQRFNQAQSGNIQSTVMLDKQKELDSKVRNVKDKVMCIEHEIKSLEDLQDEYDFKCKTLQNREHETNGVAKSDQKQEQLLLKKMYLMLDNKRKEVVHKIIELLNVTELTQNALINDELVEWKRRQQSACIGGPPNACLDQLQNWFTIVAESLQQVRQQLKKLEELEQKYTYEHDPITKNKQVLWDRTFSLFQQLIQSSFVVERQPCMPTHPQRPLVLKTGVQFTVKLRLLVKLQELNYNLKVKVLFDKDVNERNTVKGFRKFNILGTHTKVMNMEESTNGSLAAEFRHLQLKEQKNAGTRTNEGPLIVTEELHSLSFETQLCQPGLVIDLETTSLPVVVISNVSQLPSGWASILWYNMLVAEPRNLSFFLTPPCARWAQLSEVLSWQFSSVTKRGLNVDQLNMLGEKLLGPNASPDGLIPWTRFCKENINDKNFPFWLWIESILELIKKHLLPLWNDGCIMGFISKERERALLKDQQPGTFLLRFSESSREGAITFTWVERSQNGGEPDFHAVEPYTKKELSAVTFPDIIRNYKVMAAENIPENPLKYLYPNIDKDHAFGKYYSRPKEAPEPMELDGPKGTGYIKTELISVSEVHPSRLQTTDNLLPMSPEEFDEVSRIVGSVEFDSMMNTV
The description is as above. To be noted: remark: other sources report otherwise.

The target in experiment [3] is T2, STAT5B, FLAG-tagged or V5-tagged (pTwist-FLAG-STAT5B, pTwist-V5-STAT5B) (human), P51692.
T2 chain: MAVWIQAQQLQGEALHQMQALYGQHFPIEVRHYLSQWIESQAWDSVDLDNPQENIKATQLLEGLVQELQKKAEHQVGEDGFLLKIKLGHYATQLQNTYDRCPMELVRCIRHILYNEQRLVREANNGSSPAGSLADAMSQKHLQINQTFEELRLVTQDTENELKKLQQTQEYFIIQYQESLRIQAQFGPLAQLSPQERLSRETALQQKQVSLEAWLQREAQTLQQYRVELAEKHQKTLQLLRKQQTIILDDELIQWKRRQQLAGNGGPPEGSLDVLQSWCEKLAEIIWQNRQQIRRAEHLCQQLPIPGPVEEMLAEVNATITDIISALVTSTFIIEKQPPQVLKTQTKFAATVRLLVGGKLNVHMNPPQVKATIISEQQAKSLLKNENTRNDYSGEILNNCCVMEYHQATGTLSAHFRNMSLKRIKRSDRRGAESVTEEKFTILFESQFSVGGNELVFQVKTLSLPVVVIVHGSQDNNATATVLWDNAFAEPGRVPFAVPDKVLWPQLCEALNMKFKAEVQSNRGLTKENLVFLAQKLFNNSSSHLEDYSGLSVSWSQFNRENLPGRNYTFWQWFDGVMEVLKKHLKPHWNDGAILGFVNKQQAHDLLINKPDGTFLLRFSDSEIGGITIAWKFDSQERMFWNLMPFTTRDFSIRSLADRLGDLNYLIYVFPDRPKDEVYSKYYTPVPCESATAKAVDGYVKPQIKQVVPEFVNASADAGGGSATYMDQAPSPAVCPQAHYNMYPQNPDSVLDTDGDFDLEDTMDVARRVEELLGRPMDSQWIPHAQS
Described as above. Particulars: remark: other sources report otherwise.

Experiment [4] deals with T3, STAT5B, endogenous (human (endogenous in NHLF and HDF hTERT)), P51692.
T3 chain: T2 chain
The experiment is described as follows: co-IP; endogenous STAT1 and STAT5B in NHLF cells treated with 1 nM IFN-β for 1 h or left untreated; immunoblot. Particulars: remark: other sources report otherwise.

The target in experiment [5] is T3, STAT5B, endogenous (human (endogenous …)). The experiment is described as follows: proximity ligation; HDF hTERT cells with or without 1 nM IFN-β for 1 h; fixed, permeabilised; mouse anti-STAT1 and rabbit anti-STAT5B; DuoLink In-situ Detection Reagents Far Red; PLA spots per nucleus counted. Particulars: remark: other sources report otherwise.

For “STAT5B, FLAG-tagged or V5-tagged (pTwist-FLAG-STAT5B, pTwist-V5-STAT5B) (from UniProt P51692 1-787)”, in experiment [1], the binding result is recorded as “binds”.

B1: STAT1, FLAG-tagged or V5-tagged (pTwist-FLAG-STAT1, pTwist-V5-STAT1), P42224 1-750 (protein)
chain: T1 chain
For the molecule B1, the binding result in experiment [2] and in experiment [3] was “binds” each time.

B2: STAT1, endogenous, P42224 1-750 (protein)
chain: T1 chain
As for B2, the binding result in experiment [4] and in experiment [5] was “binds” each time.

These data come from PMC13395443.
